{
  "source": "paper PMC5100577",
  "target": "T1, Nap1-9xmyc (yeast) (UniProt P25293)",
  "T1 sequence": "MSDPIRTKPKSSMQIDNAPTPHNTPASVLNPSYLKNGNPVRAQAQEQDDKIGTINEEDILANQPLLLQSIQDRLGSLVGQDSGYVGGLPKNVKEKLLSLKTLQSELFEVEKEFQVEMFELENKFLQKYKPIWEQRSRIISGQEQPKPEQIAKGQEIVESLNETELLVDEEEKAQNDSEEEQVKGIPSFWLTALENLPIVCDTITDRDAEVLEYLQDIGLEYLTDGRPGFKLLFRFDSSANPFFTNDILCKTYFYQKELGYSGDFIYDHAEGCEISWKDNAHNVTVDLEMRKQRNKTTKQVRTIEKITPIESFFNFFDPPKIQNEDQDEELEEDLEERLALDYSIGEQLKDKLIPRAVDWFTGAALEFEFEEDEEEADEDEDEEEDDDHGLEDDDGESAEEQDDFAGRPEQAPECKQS",
  "experiment": "co-IP; soluble whole cell extract (chromatin pelleted) of Myc-tagged Spt16 or Nap1 yeast, wild-type or HBRΔ as only H2B; anti-myc agarose beads, 4°C overnight; 40 mM HEPES pH 7.5, 0.1% Tween-20, 150 mM NaCl, 10% glycerol; western blot for H2A, H2B, H2AZ, H3; also with nuclease treatment of the extract and in nap1Δ cells",
  "note": "Results are given in words; binding and its absence hold for the method and conditions named. In cells and extracts the contact can be indirect. Where a sequence is shown, tags or fusion partners need not be part of it.",
  "data": [
    {"substance": "yeast histone H3 (from UniProt P61830 1-136) (other; other documents disagree on this pair)", "values": [
      {"measurement": "binding", "result": "no binding"}
    ]}
  ]
}
